Assay results reported in PubChem BioAssay AID1347075 (National Center for Advancing Translational Sciences (NCATS), 2019).
The whole screen tested about 400,000 compounds, of which about 5,500 (1.4%) were called active. This list was built around the results that the source calls inconclusive (neither active nor inactive); the mix of calls is not that of the screen. Calls follow the shape of the dose curve; as a rule, active = well fitted cell-killing curve with a large enough effect; inconclusive = small, poorly fitted or top-dose-only effect, or effect the other way; inactive = flat fitted curve, though single readings scatter. Potencies of inconclusive entries are doubtful fits and often do not repeat.

experiment: qHTS assay for MDR1-selective chemotherapeutics: Primary screen using the parental adenocarcinoma cell KB-3-1; conditions: KB-3-1 viability, CellTiter-Glo ATP luminescence, 72 h; activity change, negative = cytotoxic: at 46.1 µM (top of the series); also: nearly all actives have a fitted effect of over 60% in size
Summary of the method: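 Luminescent ATP read-out (CellTiter-Glo) measures survival of drug-naive KB-3-1 cells after 72 h compound exposure at 37 °C. Titration series was screened from lowest to highest concentration, with DMSO vehicle plates as background controls.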
% is scaled to controls: 0 for no effect and ±100 for the full control effect; potency is read from the fitted curve at half-maximal effect.

| Structure (SMILES) | activity change, negative = cytotoxic | Potency |
| --- | --- | --- |
| CCc1nc(CN(C)C(=O)C2CCC(=O)N(Cc3cccc(F)c3)C2)no1 (centres undefined) | inactive: -15.9% |  |
| CC(C)c1ccc(S(=O)(=O)N2CCN(Cc3cccc(F)c3)CC2)cc1 | inactive: -15.7% |  |
| COc1ccc(C)c2sc(NC(=O)c3ccc(S(=O)(=O)N(C)C)cc3)nc12 | inactive: -1.39% |  |
| CCOC(=O)C1CCN(C(=S)Nc2cccc(C)c2C)CC1 | inactive: 8% |  |
| Cc1sc(NC(=O)c2ccc(Br)s2)c(C(N)=O)c1C |  | inconclusive: 32.6 µM [cytotoxic, partial curve, poor fit] |
| COC(=O)CC1COc2ccccc2N1C(=O)c1ccc(OC)cc1 (centres undefined) | inactive: 6.34% |  |
| O=C1c2ccccc2C(=O)N1CCCCc1cn(C[C@H]2CC[C@H](Cn3cc(CCCCN4C(=O)c5ccccc5C4=O)nn3)O2)nn1 | inactive: 5.95% |  |
| CCOC(=O)C1CCN(C(=O)c2cc3sc(C)cc3n2C)CC1 | inactive: 4.81% |  |
| OCC[C@H]1C[C@H](O)[C@@H](O)[C@]2(CCCO2)O1 | inactive: 0.926% |  |
| C[C@H](O)[C@@H]1C(=O)N2CCc3ccc(-c4ccccc4)cc3[C@@H]2C[C@@H]1N(C)C(=S)Nc1ccc(F)cc1 |  | inconclusive: 29.1 µM [cytotoxic, single point] |
| COCCCn1c(=O)c2sccc2n2c(CCCC(=O)NCc3cccc(OC)c3)nnc12 | inactive: 1.32% |  |
| CC1CCN(C(=O)CSc2nc3[nH]ncc3c(=O)[nH]2)CC1 | inactive: 20.4% |  |
| COc1cccc(-c2c(C#N)c(N)nc3c2c(C)nn3-c2ccccc2)c1O | inactive: -21.6% |  |
| Cc1ccc(S(=O)(=O)N(C)S(=O)(=O)c2ccc(C)cc2)cc1 |  | inconclusive: 25.9 µM [cytotoxic, single point] |
| CC1CCN(S(=O)(=O)c2ccc(C(=O)Nc3nnc(-c4ccco4)o3)cc2)CC1 |  | inconclusive: 25.9 µM [cytotoxic, single point] |
| CCCCOc1ccc(C(=O)Nc2ccc3c(c2)CCCN3C(=O)c2cccs2)cc1 |  | inconclusive: 4.61 µM [cytotoxic, full curve, poor fit] |
| O=C(CSc1ncc(-c2ccccc2)[nH]1)Nc1ccccc1 |  | inactive |
| CCN1C(=O)c2ccccc2S(=O)(=O)c2ccc(C(=O)NCc3ccccc3)cc21 | inactive: 5.31% |  |
| COc1ccc(S(=O)(=O)Nc2cc3[nH]c(=O)oc3cc2C)cc1 |  | inconclusive: 20.6 µM [cytotoxic, single point] |
| CC(C)(C)c1ccc(C(=O)CCCSC2=C(C#N)C(c3ccco3)C3=C(CCCC3=O)N2)cc1 (centres undefined) |  | inconclusive: 29.1 µM [cytotoxic, single point] |
| CC(=O)c1ccc(NC(=O)CN(C)CC(=O)Nc2cccc(F)c2)cc1 |  | inconclusive: 29.1 µM [rising, single point] |
| COc1cc(C=CC(=O)c2ccccc2)cc(OC)c1OC |  | inconclusive: 20.6 µM [cytotoxic, single point] |
| CCc1cc(=O)oc2cc(C)cc(OCC(=O)NC(Cc3ccc(Cl)cc3)C(=O)O)c12 (centres undefined) |  | inconclusive: 14.6 µM [cytotoxic, partial curve] |
| O=c1c(-c2ccccc2)c(-c2ccccc2)oc2cc(O)cc(O)c12 | inactive: 7.14% |  |
| CCOc1ccc2c(c1)C(=NNC(=O)c1ccncc1)c1cc(OCC)ccc1-2 |  | inconclusive: 5.8 µM [cytotoxic, partial curve] |

Laid out differently: 4 of the compounds above.
CCN1C(=O)c2ccccc2S(=O)(=O)c2ccc(C(=O)NCc3ccccc3)cc21
  activity change, negative = cytotoxic: inactive: 5.31%
COc1ccc(S(=O)(=O)Nc2cc3[nH]c(=O)oc3cc2C)cc1
  Potency: inconclusive: 20.6 µM [cytotoxic, single point]
CC(C)(C)c1ccc(C(=O)CCCSC2=C(C#N)C(c3ccco3)C3=C(CCCC3=O)N2)cc1 (centres undefined)
  Potency: inconclusive: 29.1 µM [cytotoxic, single point]
CC(=O)c1ccc(NC(=O)CN(C)CC(=O)Nc2cccc(F)c2)cc1
  Potency: inconclusive: 29.1 µM [rising, single point]

(listing goes on)

| Structure (SMILES) | activity change, negative = cytotoxic | Potency |
| --- | --- | --- |
| O=C(CCC1N=C2c3ccccc3N=C(SCC(=O)Nc3cccc(Cl)c3)N2C1=O)NCc1ccco1 (centres undefined) | inactive: -2.65% |  |
| Oc1ccc(N=Nc2nccs2)c(O)c1 |  | inconclusive: 29.1 µM [cytotoxic, single point] |
| Cc1ccnc(NC(=O)c2ccccc2NC(=O)C(C)(C)C)c1 |  | inconclusive: 20.6 µM [cytotoxic, single point] |
| N#Cc1cccc(-c2csc(C(O)(c3ccccc3)C(F)(F)F)n2)c1 (centres undefined) |  | inconclusive: 29.1 µM [cytotoxic, single point] |
| O=C1CCCCC1Oc1ccc2ccc(=O)oc2c1 (centres undefined) | inactive: -7.29% |  |
| Cc1c(C(=O)Nc2ccccc2)sc2nc(-c3ccccc3)cn12 | inactive: -5.06% |  |
| C/C(=N\NC(N)=S)C12CC3CC(CC(C3)C1)C2 | inactive: -7.18% |  |
| CSC(=S)NCc1cccnc1 |  | active: 25.9 µM |
| CCN(CC)S(=O)(=O)c1ccc(C(=O)N(c2ccccc2)C2C=CS(=O)(=O)C2)cc1 (centres undefined) |  | inconclusive: 29.1 µM [rising, single point] |
| Cc1ccc(N(CC(=O)N2CCN(c3cc(C)ccc3C)CC2)S(=O)(=O)c2c(C)nn(C)c2C)cc1 |  | inconclusive: 29.1 µM [cytotoxic, single point] |
| Cc1cc(C)c2nc(SCC(=O)N3CC(=O)Nc4ccccc43)c(C#N)cc2c1 |  | active: 0.651 µM |
| O=[N+]([O-])c1nn(-c2ccccc2)n(O)c1=NC1CCN(Cc2ccccc2)CC1 | inactive: -5.46% |  |
| Cc1ccc2cc(CN(Cc3ccc4c(c3)OCO4)Cc3nnnn3Cc3ccco3)c(=O)[nH]c2c1 |  | inconclusive: 29.1 µM [cytotoxic, single point] |
| COc1ccc(-c2cc(C)no2)cc1S(=O)(=O)NCCCN1CCN(c2ccccc2)CC1 |  | inconclusive: 29.1 µM [cytotoxic, single point] |
| COc1ccc(-n2c(C)cc(C(=O)Cn3c(NCCO)nc4ccccc43)c2C)cc1 |  | inconclusive: 23.1 µM [cytotoxic, single point] |
| c1ccc(Cn2c(-c3cncs3)nc3ccccc32)cc1 | inactive: -1.84% |  |
| C/C(=N\Nc1cc(C)nc(-c2ccccc2O)n1)c1ccccc1O |  | inconclusive: 29.1 µM [cytotoxic, single point] |
| NC(CCc1ccccc1)c1csc(NC(=O)Nc2ccccc2Oc2ccccc2)n1 (centres undefined) |  | inconclusive: 29.1 µM [cytotoxic, single point] |
| OC(CNC1CCCCCC1)COc1cccc2ccccc12 (centres undefined) |  | inconclusive: 29.1 µM [cytotoxic, single point] |
| CCc1cccc(CC)c1NC(=O)CCCSc1nc2ccccc2s1 |  | inconclusive: 29.1 µM [cytotoxic, single point] |
| CN(C)CC(CCC(CN(C)C)C(=O)c1ccccc1)C(=O)c1ccccc1 (centres undefined) |  | active: 16.4 µM |
| Cc1ccc(S(=O)(=O)n2c(C)nc3ccccc32)cc1 | inactive: 0.267% |  |
| Cc1cccc(CSc2nnc(CCNC(=O)OC(C)(C)C)o2)c1 | inactive: -8.38% |  |
| Cn1c(=O)c2c(nc(Sc3ncccn3)n2Cc2ccccc2Cl)n(C)c1=O | inactive: -2.34% |  |
| Cc1ccnc(NC(=O)Nc2ccc3c(c2)N(C)C(=O)CS3)c1 |  | inconclusive: 14.6 µM [rising, partial curve, poor fit] |

| Structure (SMILES) | activity change, negative = cytotoxic | Potency |
| --- | --- | --- |
| COC(=O)COc1ccc(-c2nnc(Nc3ccc(O)cc3)c3ccccc23)cc1 |  | inconclusive: 29.1 µM [cytotoxic, single point] |
| CC(C)CN(CC(C)C)C(=O)c1cccc(S(=O)(=O)N2CCc3ccccc32)c1 |  | inconclusive: 23.1 µM [cytotoxic, single point] |
| CCc1c(C)c2ccc(O)c(CN3CCN(c4cc(Cl)ccc4C)CC3)c2oc1=O | inactive: -2.63% |  |
| O=C(Nc1cccc(C(F)(F)F)c1)C1CCN(S(=O)(=O)c2cccnc2)CC1 | inactive: -6.84% |  |
| O=C(NCCCN1CCOCC1)NC1CCCCC1 | inactive: 3.35% |  |
| Cc1cc(C)c(C)c(N=Nc2nc3ccccc3n2C)c1C |  | inconclusive: 18.4 µM [cytotoxic, single point] |
| CC(C)c1csc(CN2CCN(Cc3ccc(F)cc3)C(CCO)C2)n1 (centres undefined) |  | inconclusive: 29.1 µM [rising, single point] |
| COc1ccccc1-c1cc(NC=O)c2ncc(-c3ccc(S(C)(=O)=O)cc3)n2c1 |  | active: 13 µM |
| Cc1ccc(CNC(=O)C(=O)Nc2c3c(nn2-c2ccc(F)cc2)CSC3)cc1 | inactive: 0.401% |  |
| Cc1cnc(C(=O)Nc2cccc(-c3nnc4n3CCCCC4)c2)cn1 | inactive: 10.9% |  |
| O=c1c2sc3ccccc3c2n(Cc2cccc(F)c2)c(=O)n1CCc1ccccc1 | inactive: -0.325% |  |
| Nc1c(C(=O)NCc2ccccc2)c2nc3ccccc3nc2n1CCCN1CCOCC1 | inactive: -13% |  |
| CC(=NNC(=S)N1CCCCC1)c1ccccn1 |  | inconclusive: 23.1 µM [cytotoxic, partial curve, poor fit] |
| Cc1ccc(C2C3=C(CC(C)(C)CC3=O)N=C3c4ccccc4C(=O)C32)cc1 (centres undefined) |  | inconclusive: 7.31 µM [cytotoxic, partial curve] |
| Cc1cc(OCC(O)CNC(C)c2ccccc2)ccc1C(C)C (centres undefined) |  | inconclusive: 20.6 µM [cytotoxic, partial curve, poor fit] |
| CCN(CCCNC(=O)COc1cc(=O)n(CC)c2ccccc12)Cc1ccccc1 |  | inconclusive: 32.6 µM [cytotoxic, single point] |
| CCCNC(=O)c1cc2c(c(-c3cccc(-c4cc5ccccc5o4)c3)n1)[C@H](CCO)N(C(=O)NC(C)C)C2 | inactive: -8.67% |  |
| Cc1ccc(Cc2nc3ccccc3nc2SCC(=O)N2CCC(C)CC2)cc1 |  | inconclusive: 29.1 µM [cytotoxic, single point] |
| Cc1nc2c3ccccc3nc(NNC(=O)CCC(=O)NC3CCCC3)n2n1 |  | inconclusive: 29.1 µM [rising, single point] |
| Cc1ccc(-n2nc(C)c3c(C)c(CCC(=O)NC(C)c4ccccc4)c(C)nc32)cc1 (centres undefined) |  | inactive |
| Cc1ccc(N(CC(=O)NCc2ccc3c(c2)OCO3)S(C)(=O)=O)cc1 |  | inconclusive: 29.1 µM [cytotoxic, single point] |
| O=c1c2cc(Br)ccc2[nH]c(=S)n1Cc1ccccc1 | inactive: -6.63% |  |
| Cn1ccsc1=NC(=O)c1ccc([N+](=O)[O-])o1 |  | inconclusive: 23.1 µM [cytotoxic, partial curve, poor fit] |
| COC(=O)C1=C(C)N(Cc2ccccc2)C(=NCC(C)C)N[C@H]1c1cccc(C(F)(F)F)c1 |  | inconclusive: 29.1 µM [cytotoxic, single point] |
